Measurements as given in publication PMC10936181.
No constants are given. Whether binding was seen depends on the method and setting.

Assays:
[1] = molecular target: T1, Helicobacter pylori adhesin A, HpaA_(26-233) (H. pylori 26695 strain), P55969; assay: crystal structure; sitting drop, 20°C, 0.1 M sodium acetate pH 4.5, 23% PEG 3350, 6% glycerol; space group P2_(1), four HpaA molecules in the asymmetric unit; 2.9 Å; both purified; settings: remark: other sources report otherwise
T1 chain: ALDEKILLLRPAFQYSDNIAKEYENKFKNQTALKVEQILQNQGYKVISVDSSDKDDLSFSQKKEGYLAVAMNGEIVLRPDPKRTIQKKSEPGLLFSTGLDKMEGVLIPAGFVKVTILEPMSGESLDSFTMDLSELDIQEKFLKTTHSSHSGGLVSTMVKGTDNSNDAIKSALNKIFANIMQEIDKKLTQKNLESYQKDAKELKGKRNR

[2] = molecular target: T1, Helicobacter pylori adhesin A, …; assay: SEC-MALS; 25°C; Acquity UPLC Protein BEH SEC 200Å column; phosphate buffer (137 mM NaCl, 2.7 mM KCl, 8 mM Na2HPO4, 2 mM KH2PO4, pH 7.5); both purified; settings: remark: other sources report otherwise

B1: Helicobacter pylori adhesin A, HpaA_(26-233), P55969 53-260 (domain or fragment)
chain: T1 chain
- binding [1]: no binding
- binding [2]: no binding
